Earlier results, collected in US20100204282A1, “Reverse indoles as 5-lipoxygenase-activating protein (FLAP) inhibitors” (priority 2007, published 2010).
At least one structure is not confirmed: it was looked up by name or label, or the drawing left a doubt.

Assays:
[1] = aspirin-induced asthma
[2] = in vivo

## COC1(c2cc(F)cc(OCc3ccc4c(ccc(=O)n4C)c3)c2)CCOCC1 [ZD2138, 6-[(3-fluoro-5-[4-methoxy-3,4,5,6-tetrahydro-2H-pyran-4-yl])phenoxy-methyl]-1-methyl-2-quinolone]
[1]
  inhibition of the fall of FEV1: has efficacy in inhibiting the fall of FEV1

## O=C(Nc1cccc2c(=O)cc(-c3nnn[nH]3)oc12)c1ccc(OCCCCc2ccccc2)cc1 [pranlukast]
[2]
  efficacy in asthma: efficacious in asthma
